Results are given in words; binding and its absence hold for the method and conditions named. Binding seen in cells or lysates may run through a third protein. Some entries that bind do so weakly or less than the wild type.
Tests used:
[1] = molecular target: VLA-4 (very late antigen-4, α4β1 integrin), human (human) (UniProt P13612+P05556); test: competition of GST-S1ED pull-down from CAG lysate, immunoblot
[2] = molecular target: vascular endothelial growth factor receptor-2 (VEGFR2), human (human) (UniProt P35968); test: as above

The chains behind the UniProt entries cited, without tags or fusion partners. Where a name states a change or a piece, a line headed by the entry shows the natural chain unless it says otherwise. Residues count along the entry.
UniProt P13612: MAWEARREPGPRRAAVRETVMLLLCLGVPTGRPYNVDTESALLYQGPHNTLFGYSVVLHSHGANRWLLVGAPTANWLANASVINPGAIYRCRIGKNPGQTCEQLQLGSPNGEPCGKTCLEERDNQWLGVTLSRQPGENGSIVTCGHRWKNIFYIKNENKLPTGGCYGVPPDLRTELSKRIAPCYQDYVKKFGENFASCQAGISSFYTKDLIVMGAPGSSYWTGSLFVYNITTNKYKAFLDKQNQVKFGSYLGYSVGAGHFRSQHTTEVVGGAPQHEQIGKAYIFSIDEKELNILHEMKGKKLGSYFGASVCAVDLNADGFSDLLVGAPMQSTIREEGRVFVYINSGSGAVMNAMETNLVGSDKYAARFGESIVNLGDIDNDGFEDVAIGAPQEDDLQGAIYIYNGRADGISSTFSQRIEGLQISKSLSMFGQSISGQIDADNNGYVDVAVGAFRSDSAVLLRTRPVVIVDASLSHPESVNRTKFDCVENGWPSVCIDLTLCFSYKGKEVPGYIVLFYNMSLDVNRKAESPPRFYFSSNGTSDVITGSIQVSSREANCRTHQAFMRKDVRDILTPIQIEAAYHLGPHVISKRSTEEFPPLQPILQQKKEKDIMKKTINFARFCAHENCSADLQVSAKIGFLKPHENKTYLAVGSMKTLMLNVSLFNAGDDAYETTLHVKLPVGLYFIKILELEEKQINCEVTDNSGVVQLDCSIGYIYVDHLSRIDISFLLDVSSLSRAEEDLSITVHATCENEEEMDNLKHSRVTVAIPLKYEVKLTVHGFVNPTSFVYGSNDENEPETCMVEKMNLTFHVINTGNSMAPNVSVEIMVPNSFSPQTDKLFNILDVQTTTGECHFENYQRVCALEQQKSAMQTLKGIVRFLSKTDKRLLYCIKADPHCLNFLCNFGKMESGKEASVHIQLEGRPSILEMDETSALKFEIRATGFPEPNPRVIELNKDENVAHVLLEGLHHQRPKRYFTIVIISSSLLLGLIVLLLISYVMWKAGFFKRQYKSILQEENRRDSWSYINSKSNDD
UniProt P05556: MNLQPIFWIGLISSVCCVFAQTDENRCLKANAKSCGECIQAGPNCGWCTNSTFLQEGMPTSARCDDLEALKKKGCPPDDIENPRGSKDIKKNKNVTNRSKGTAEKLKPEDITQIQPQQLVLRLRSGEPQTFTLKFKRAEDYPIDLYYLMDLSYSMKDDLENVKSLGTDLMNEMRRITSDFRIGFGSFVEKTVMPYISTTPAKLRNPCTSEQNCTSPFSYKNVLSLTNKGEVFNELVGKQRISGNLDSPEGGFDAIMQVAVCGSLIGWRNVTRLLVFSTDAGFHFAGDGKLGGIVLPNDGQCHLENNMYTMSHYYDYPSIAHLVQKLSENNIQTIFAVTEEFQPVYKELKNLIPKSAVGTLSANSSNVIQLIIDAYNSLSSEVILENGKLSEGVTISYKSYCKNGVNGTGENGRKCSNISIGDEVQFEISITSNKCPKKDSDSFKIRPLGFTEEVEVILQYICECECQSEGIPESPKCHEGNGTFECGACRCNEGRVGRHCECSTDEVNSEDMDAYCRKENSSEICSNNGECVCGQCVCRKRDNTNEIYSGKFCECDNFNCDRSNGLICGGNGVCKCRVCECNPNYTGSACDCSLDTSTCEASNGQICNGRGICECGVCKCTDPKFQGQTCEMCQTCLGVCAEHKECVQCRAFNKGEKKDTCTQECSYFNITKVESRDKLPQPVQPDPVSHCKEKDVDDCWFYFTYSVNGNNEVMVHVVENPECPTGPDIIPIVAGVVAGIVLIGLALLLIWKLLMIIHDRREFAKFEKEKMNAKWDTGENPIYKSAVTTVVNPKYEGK
UniProt P35968, residues 20-1356: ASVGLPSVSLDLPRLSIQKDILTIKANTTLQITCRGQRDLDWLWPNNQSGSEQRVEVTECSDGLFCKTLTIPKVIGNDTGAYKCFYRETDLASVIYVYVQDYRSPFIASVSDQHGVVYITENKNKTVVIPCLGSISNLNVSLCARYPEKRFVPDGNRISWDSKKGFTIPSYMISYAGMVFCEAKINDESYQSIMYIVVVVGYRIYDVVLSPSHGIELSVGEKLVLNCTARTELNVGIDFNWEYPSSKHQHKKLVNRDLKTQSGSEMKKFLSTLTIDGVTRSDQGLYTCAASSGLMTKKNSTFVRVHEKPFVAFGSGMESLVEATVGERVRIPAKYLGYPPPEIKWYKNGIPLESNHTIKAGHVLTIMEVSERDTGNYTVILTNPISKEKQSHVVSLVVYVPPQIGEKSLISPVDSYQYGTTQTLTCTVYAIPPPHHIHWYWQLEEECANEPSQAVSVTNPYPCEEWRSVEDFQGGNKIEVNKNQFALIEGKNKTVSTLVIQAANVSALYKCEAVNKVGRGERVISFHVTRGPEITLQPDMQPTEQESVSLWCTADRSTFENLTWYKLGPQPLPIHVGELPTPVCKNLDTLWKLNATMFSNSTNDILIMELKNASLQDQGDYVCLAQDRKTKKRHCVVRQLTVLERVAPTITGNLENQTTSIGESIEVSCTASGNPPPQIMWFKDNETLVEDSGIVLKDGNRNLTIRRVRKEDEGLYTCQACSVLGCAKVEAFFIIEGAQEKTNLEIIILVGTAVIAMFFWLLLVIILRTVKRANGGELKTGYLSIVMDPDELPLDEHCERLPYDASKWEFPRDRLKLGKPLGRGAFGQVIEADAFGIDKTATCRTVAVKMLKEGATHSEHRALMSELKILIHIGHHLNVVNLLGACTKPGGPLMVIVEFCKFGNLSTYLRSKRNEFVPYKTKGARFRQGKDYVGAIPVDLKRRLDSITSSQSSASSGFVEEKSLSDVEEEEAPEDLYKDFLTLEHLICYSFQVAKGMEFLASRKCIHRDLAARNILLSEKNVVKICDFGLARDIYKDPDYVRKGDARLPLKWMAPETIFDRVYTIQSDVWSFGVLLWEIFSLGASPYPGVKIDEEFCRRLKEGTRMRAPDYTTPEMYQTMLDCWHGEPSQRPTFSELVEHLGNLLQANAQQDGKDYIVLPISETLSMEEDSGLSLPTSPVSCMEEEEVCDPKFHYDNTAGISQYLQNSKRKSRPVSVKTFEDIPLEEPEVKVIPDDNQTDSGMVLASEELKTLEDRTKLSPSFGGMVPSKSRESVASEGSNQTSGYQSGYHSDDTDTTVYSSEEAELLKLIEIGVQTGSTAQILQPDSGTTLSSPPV

binding [1]	binding [2]	Binder
binds	binds	DFTFETSGENTAVVAVEPDRRNQSPVD [S1ED^210-236 peptide]
	binds	ETSGENTAVVAVEPDRRNQSPVDQGAT [S1ED^214-240 peptide]

— US20160256523A1
